Target: T1, Phospholipase D (Pseudomonas aeruginosa, UniProt Q9HYC2)
T1 sequence (Q9HYC2 whole entry): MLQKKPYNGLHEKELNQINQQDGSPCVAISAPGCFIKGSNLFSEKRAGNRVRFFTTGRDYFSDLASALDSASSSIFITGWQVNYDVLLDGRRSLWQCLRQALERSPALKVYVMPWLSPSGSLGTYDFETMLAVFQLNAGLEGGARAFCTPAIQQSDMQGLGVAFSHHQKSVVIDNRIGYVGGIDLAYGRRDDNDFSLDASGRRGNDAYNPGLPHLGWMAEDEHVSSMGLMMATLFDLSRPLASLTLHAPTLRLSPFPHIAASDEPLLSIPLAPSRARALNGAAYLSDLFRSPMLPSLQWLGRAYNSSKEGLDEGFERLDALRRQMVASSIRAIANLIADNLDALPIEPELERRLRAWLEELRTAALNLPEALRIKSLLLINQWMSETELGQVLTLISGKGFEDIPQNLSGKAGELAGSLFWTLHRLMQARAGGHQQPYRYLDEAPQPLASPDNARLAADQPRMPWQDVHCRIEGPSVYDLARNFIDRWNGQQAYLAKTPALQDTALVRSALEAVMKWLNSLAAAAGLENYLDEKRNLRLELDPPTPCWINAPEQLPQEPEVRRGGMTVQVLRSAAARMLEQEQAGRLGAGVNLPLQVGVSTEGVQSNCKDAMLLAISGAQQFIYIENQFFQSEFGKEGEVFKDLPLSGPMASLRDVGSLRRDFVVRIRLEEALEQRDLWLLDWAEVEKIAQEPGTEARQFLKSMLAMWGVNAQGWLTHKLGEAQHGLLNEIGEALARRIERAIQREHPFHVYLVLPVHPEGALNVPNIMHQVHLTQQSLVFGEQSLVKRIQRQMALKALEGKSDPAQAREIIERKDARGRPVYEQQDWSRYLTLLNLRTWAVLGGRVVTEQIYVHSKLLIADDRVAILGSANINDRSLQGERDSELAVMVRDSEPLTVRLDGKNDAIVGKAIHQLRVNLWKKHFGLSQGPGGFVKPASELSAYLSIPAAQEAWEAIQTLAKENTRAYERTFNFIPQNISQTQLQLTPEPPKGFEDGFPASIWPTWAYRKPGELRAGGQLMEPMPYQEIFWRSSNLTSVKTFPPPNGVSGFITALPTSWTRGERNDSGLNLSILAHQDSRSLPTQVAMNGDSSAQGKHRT
Settings: pH 7.5

CC/C(=C(\c1ccccc1)c1ccc(OCCN(C)C)cc1)c1ccccc1 [(2-{4-[(1Z)-1,2-diphenylbut-1-en-1-yl]phenoxy}ethyl)dimethylamine]
IC50: 15 µM
